No constants are given. Whether binding was seen depends on the method and setting. Binding seen in cells or lysates may run through a third protein. Some results given as binding are weak or reduced against the parent protein; the word gives no strength.
Tests used:
[1] = target: T1, promyelocytic leukemia protein (PML) (mouse (endogenous in neonatal mouse cardiac fibroblasts)) (UniProt Q60953); assay: condition: only cells pretreated with ginkgolic acid (GA, 10 μM), a SUMOylation inhibitor, before TGF-β1; proximity ligation; Duolink in situ PLA on fixed neonatal mouse cardiac fibroblasts pretreated with ginkgolic acid (10 μM, 1 h) before TGF-β1
T1 sequence: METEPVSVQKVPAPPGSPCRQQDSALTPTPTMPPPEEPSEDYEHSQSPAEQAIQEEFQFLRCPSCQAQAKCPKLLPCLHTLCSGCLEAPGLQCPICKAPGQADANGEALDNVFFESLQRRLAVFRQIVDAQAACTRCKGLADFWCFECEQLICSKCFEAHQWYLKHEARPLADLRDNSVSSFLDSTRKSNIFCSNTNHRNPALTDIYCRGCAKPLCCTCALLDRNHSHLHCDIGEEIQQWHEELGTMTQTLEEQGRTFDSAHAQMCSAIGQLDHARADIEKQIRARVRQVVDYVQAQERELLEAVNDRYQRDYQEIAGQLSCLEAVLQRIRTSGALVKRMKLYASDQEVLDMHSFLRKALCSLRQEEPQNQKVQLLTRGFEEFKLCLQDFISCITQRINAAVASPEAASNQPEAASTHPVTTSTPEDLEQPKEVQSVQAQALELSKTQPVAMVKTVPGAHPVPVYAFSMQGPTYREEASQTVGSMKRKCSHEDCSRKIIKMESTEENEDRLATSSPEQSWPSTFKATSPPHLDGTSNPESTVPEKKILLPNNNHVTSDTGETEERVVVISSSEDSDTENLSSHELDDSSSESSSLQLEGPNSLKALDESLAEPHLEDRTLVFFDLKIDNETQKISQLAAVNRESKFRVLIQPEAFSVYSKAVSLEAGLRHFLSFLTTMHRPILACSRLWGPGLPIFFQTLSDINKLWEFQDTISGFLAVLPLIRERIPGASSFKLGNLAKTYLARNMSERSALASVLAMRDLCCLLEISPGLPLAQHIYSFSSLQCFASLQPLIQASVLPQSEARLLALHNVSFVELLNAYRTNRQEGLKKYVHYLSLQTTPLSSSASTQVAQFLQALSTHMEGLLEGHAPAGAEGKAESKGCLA

By UniProt entry, the sequences of proteins in these tests, tags left out.
UniProt P02340: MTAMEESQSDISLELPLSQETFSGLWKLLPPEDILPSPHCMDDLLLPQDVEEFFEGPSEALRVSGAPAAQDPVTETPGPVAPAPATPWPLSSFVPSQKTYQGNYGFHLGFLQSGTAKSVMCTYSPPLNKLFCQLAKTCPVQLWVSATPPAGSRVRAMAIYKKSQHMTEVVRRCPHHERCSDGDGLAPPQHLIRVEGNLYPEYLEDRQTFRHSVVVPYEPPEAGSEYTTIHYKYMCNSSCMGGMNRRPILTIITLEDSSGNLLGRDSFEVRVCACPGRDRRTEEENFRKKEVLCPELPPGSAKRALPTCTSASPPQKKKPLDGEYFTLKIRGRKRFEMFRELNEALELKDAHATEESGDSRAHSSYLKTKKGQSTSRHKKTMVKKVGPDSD

[2] = target: T1, promyelocytic leukemia protein (PML) (mouse (endogenous in neonatal mouse cardiac fibroblasts)); assay: proximity ligation; Duolink in situ PLA on fixed, permeabilised neonatal mouse cardiac fibroblasts with anti-p53 and anti-PML antibodies; with or without TGF-β1
[3] = target: T1, promyelocytic leukemia protein (PML) (mouse (endogenous in neonatal mouse cardiac fibroblasts)); assay: co-IP; whole-cell RIPA lysates of neonatal mouse cardiac fibroblasts, with or without TGF-β1; immunoprecipitated with anti-PML or anti-p53 antibody, captured on magnetic protein A/G beads, immunoblot for the other protein

binding [1]: no binding
binding [2]: binds
binding [3]: binds
Substance: p53 (from UniProt P02340 1-390)

— paper PMC9910009
